Assay [1] deals with SH3 domain of Crk, GST fusion (UniProt P46108). Briefly: pull-down; GST-SH3 domains coupled to glutathione-Sepharose; columns loaded with a Triton X-100 extract of crude synaptosomal fraction (P2) from rat forebrain; bound proteins eluted with SDS and immunoblotted with anti-PRRT2 or anti-dynamin I; only the target purified.
For assay [2], the target named is Intersectin 1 SH3-A domain, GST fusion (UniProt Q15811). The description is as above.

Sequences of proteins named here, by UniProt entry; tags and fusion partners are left off. A change or cut given only in a name is not applied to a line headed by its entry.
UniProt P46108: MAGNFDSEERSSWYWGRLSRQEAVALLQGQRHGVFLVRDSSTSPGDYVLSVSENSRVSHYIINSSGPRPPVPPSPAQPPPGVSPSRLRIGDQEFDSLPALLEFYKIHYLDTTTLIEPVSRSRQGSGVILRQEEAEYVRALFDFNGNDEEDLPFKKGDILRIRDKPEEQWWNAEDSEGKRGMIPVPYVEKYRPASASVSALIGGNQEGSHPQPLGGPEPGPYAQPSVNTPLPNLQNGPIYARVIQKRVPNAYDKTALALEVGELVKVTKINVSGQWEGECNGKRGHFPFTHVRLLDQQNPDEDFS
UniProt Q15811: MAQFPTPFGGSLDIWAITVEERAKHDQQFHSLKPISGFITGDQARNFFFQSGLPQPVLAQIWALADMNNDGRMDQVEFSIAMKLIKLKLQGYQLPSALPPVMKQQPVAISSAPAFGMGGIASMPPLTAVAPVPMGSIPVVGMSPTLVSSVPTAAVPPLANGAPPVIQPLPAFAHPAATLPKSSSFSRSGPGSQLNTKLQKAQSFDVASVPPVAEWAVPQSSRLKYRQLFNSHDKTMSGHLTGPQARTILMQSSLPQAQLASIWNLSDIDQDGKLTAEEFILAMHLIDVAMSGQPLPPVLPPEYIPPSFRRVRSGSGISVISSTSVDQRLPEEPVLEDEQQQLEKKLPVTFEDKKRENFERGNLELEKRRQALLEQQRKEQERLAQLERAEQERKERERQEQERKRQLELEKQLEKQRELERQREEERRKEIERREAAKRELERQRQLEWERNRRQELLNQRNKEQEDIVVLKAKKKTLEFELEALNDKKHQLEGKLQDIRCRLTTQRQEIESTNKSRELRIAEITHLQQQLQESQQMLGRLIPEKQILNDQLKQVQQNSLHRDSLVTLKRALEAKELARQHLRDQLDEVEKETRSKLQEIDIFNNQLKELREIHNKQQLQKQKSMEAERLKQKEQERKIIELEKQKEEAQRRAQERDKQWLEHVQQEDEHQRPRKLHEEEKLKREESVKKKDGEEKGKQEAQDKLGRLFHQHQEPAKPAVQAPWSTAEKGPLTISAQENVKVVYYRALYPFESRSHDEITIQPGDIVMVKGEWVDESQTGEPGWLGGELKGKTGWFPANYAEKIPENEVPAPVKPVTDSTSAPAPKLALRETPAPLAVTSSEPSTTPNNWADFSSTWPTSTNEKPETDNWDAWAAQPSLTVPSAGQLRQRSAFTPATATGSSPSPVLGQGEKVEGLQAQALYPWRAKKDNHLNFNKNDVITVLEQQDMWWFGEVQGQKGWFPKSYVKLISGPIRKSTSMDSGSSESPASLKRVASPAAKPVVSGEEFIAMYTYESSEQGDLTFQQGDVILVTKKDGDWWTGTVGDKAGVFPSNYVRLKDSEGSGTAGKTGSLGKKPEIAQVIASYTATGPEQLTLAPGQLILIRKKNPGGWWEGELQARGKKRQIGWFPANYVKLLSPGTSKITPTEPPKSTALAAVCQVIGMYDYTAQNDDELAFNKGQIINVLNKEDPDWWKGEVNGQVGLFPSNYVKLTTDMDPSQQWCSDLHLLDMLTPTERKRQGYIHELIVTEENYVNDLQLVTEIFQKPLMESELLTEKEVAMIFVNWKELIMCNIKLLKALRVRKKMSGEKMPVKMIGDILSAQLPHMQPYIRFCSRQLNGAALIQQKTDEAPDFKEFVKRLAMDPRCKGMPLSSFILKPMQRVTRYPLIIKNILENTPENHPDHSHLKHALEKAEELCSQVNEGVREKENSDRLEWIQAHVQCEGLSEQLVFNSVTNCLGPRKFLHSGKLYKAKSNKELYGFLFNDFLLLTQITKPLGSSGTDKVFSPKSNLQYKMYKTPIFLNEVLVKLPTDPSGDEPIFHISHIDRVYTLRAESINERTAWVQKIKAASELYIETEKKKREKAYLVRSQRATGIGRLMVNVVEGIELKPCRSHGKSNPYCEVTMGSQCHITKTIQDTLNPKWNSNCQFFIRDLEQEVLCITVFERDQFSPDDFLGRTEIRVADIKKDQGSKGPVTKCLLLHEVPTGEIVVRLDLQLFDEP

These are yes or no findings as the source states them, for the method shown. Binding seen in cells or lysates may run through a third protein. A result given as binding can be weak or reduced; the word gives no strength.

B1: Proline-rich transmembrane protein 2 (PRRT2), endogenous in rat forebrain synaptosomes (protein, UniProt D3ZFB6 1-344)
chain: MAASSSEVSEMKGVEDSSNTHSEGPRHSEEGMGPVQVVAENLDQPEALQSGPDTTAAPVDSGPKAELAPETTETPVETPETVQATDLSVNPGEDSKTCPSPKEACQEPASRPEVNREATAEQGAEQQSAAPPEPTSEQALQLNTQSDPQPTSQPPPKPPLQAEPPTQENPTTEVLTESTGEKQENGAVVPLQAGDGEEGPAPQPHSPPSTKTPPANGAPPRVLQKLVEEDRIGRAHGGHPGSPRGSLSRHPSSQLAGPGVEGGEGTQKPRDYIILAILSCFCPMWPVNIVAFAYAVMSRNSLQQGDVDGAQRLGRVAKLLSIVALVGGVLIIIASCVINLGVYK
Regarding B1, the binding result in assay [1] and in assay [2] was “binds” throughout.

B2: Dynamin I, endogenous in rat forebrain synaptosomes (protein, UniProt P21575 1-864)
chain: MGNRGMEDLIPLVNRLQDAFSAIGQNADLDLPQIAVVGGQSAGKSSVLENFVGRDFLPRGSGIVTRRPLVLQLVNSTTEYAEFLHCKGKKFTDFEEVRLEIEAETDRVTGTNKGISPVPINLRVYSPHVLNLTLVDLPGMTKVPVGDQPPDIEFQIRDMLMQFVTKENCLILAVSPANSDLANSDALKIAKEVDPQGQRTIGVITKLDLMDEGTDARDVLENKLLPLRRGYIGVVNRSQKDIDGKKDITAALAAERKFFLSHPSYRHLADRMGTPYLQKVLNQQLTNHIRDTLPGLRNKLQSQLLSIEKEVDEYKNFRPDDPARKTKALLQMVQQFAVDFEKRIEGSGDQIDTYELSGGARINRIFHERFPFELVKMEFDEKELRREISYAIKNIHGIRTGLFTPDLAFEATVKKQVQKLKEPSIKCVDMVVSELTSTIRKCSEKLQQYPRLREEMERIVTTHIREREGRTKEQVMLLIDIELAYMNTNHEDFIGFANAQQRSNQMNKKKTSGNQDEILVIRKGWLTINNIGIMKGGSKEYWFVLTAENLSWYKDDEEKEKKYMLSVDNLKLRDVEKGFMSSKHIFALFNTEQRNVYKDYRQLELACETQEEVDSWKASFLRAGVYPERVGDKEKASETEENGSDSFMHSMDPQLERQVETIRNLVDSYMAIVNKTVRDLMPKTIMHLMINNTKEFIFSELLANLYSCGDQNTLMEESAEQAQRRDEMLRMYHALKEALSIIGDINTTTVSTPMPPPVDDSWLQVQSVPAGRRSPTSSPTPQRRAPAVPPARPGSRGPAPGPPPAGSALGGAPPVPSRPGASPDPFGPPPQVPSRPNRAPPGVPSRSGQASPSRPESPRPPFDL
For the molecule B2, the binding entry in assay [1] and in assay [2] was “binds” each time.

(Values after paper PMC4813553.)
